The test addresses T1, SMG7-YFP (Arabidopsis thaliana) (UniProt A9QM73).
T1 sequence: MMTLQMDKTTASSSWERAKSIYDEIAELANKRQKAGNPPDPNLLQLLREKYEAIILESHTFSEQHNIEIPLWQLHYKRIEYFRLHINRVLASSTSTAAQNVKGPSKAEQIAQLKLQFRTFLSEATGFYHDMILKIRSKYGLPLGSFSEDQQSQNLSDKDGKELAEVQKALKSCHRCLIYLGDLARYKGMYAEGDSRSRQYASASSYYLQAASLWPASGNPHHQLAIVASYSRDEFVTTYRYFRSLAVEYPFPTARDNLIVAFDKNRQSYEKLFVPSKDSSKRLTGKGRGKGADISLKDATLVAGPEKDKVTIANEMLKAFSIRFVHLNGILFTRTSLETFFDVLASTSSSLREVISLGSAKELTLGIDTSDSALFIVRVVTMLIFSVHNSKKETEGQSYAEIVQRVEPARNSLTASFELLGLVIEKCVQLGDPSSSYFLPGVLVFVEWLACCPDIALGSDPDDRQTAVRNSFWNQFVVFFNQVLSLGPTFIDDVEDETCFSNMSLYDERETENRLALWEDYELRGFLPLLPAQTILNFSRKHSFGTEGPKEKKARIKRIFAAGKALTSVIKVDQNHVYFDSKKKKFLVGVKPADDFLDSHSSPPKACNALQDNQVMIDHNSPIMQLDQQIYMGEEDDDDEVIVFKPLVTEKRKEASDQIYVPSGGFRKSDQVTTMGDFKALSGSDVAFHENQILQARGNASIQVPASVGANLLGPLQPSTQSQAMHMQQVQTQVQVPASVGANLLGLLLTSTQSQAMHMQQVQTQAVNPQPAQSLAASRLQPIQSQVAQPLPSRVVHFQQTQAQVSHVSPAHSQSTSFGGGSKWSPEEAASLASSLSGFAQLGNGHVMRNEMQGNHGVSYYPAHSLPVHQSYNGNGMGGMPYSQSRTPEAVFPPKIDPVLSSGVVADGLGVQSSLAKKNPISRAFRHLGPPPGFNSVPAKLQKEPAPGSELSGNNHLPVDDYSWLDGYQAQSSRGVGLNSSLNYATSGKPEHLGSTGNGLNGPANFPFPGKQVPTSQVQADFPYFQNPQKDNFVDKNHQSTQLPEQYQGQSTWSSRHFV
Description: FRET or BRET; FLIM-FRET, YFP on SMG7 as donor and TagRFP on eIF4A as acceptor, transiently expressed in N. tabacum leaf epidermal cells; shortening of the YFP fluorescence lifetime.

Sequences of proteins named here, by UniProt entry; tags and fusion partners are left off. A change or cut given only in a name is not applied to a line headed by its entry.
UniProt P41376: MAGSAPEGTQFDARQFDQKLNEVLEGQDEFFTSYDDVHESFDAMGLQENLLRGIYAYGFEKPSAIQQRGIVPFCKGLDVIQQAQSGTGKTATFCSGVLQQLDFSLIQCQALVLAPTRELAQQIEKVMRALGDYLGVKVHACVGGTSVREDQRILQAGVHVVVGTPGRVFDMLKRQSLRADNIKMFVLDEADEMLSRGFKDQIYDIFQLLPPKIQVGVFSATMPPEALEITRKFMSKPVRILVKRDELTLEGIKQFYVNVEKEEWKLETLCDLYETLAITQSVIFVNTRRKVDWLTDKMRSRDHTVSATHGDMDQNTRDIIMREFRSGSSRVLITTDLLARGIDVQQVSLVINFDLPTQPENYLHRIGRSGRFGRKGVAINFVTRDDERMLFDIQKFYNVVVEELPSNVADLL

Results are given in words; binding and its absence hold for the method and conditions named. In cells and extracts the contact can be indirect. A result given as binding can be weak or reduced; the word gives no strength. Where a sequence is shown, tags or fusion partners need not be part of it.

For eIF4A1^S146D (from UniProt P41376), the binding result is reported as “binds”.

(Values after article PMC13284301.)
